Results published in paper doi:10.1101/842799.
Residue numbers refer to the chain shown, from its start. Names and notes keep the numbering of the source. No constants are given. Whether binding was seen depends on the method and setting. In cells and extracts the contact can be indirect. Some entries that bind do so weakly or less than the wild type. Tags and fused reporters may be left off the sequences shown.

Sequences of proteins named here, by UniProt entry; tags and fusion partners are left off. A change or cut given only in a name is not applied to a line headed by its entry. A line that says so, or that is headed by a name, gives the form on record, which may keep a tag or linker.
UniProt Q05195: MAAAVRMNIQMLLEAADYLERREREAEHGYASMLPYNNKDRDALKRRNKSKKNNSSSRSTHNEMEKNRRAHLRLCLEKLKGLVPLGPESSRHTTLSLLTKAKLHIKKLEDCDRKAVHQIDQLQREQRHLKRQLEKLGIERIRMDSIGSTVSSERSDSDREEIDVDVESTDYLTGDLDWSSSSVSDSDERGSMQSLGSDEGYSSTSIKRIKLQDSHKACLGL
MXD1 RR68DD (Q05195, form named): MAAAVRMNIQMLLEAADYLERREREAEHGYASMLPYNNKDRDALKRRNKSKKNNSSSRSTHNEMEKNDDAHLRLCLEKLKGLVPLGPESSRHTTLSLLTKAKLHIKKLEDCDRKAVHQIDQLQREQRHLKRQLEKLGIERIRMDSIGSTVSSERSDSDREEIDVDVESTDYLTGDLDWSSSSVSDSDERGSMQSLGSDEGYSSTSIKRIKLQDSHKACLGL

T1: FLAG-tagged MIZ1 (UniProt Q13105)
T1 sequence: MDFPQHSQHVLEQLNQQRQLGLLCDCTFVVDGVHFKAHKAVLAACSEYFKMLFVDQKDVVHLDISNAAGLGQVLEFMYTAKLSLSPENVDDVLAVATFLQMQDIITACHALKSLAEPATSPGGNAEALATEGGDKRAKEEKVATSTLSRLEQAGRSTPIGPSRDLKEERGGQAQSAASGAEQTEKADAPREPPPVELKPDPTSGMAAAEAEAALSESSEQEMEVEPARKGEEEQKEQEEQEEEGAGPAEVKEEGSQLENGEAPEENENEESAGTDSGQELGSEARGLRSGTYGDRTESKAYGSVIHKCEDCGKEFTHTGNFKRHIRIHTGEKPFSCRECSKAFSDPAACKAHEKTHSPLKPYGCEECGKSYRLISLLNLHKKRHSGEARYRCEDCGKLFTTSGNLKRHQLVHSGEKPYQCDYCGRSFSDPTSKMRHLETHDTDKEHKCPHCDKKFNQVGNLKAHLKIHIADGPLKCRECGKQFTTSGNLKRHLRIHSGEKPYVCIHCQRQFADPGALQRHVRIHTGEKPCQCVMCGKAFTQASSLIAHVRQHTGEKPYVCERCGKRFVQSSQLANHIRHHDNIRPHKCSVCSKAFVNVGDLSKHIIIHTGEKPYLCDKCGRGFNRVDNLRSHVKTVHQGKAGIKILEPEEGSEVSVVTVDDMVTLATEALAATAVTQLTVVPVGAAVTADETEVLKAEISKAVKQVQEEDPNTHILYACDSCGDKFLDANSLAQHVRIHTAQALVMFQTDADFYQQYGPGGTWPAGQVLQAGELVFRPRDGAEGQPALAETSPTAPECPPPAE

B1: V5-tagged MNT (protein, UniProt Q99583 1-582)
chain: MSIETLLEAARFLEWQAQQQQRAREEQERLRLEQEREQEQKKANSLARLAHTLPVEEPRMEAPPLPLSPPAPPPAPPPPLATPAPLTVIPIPVVTNSPQPLPPPPPLPAAAQPLPLAPRQPALVGAPGLSIKEPAPLPSRPQVPTPAPLLPDSKATIPPNGSPKPLQPLPTPVLTIAPHPGVQPQLAPQQPPPPTLGTLKLAPAEEVKSSEQKKRPGGIGTREVHNKLEKNRRAHLKECFETLKRNIPNVDDKKTSNLSVLRTALRYIQSLKRKEKEYEHEMERLAREKIATQQRLAELKHELSQWMDVLEIDRVLRQTGQPEDDQASTSTASEGEDNIDEDMEEDRAGLGPPKLSHRPQPELLKSTLPPPSTTPAPLPPHPHPHPHSVALPPAHLPVQQQQPQQKTPLPAPPPPPAAPAQTLVPAPAHLVATAGGGSTVIAHTATTHASVIQTVNHVLQGPGGKHIAHIAPSAPSPAVQLAPATPPIGHITVHPATLNHVAHLGSQLPLYPQPVAVSHIAHTLSHQQVNGTAGLGPPATVMAKPAVGAQVVHHPQLVGQTVLNPVTMVTMPSFPVSTLKLA
B2: V5-tagged MXD2 (protein, UniProt P50539 1-228)
chain: MERVKMINVQRLLEAAEFLERRERECEHGYASSFPSMPSPRLQHSKPPRRLSRAQKHSSGSSNTSTANRSTHNELEKNRRAHLRLCLERLKVLIPLGPDCTRHTTLGLLNKAKAHIKKLEEAERKSQHQLENLEREQRFLKWRLEQLQGPQEMERIRMDSIGSTISSDRSDSEREEIEVDVESTEFSHGEVDNISTTSISDIDDHSSLPSIGSDEGYSSASVKLSFTS
B3: MNT RR232DD (protein, UniProt Q99583 1-582)
chain: B1 chain with R232D, R233D
B4: MXD2 RR79DD (protein, UniProt P50539 1-228)
chain: B2 chain with R79D, R80D
B5: V5-tagged MNT L258D (protein, UniProt Q99583 1-582)
chain: B1 chain with L258D

Target: T1, FLAG-tagged MIZ1
Experiment: co-IP

Molecule | binding
MXD1 RR68DD (from UniProt Q05195 1-221) | binds
V5-tagged MXD1 (from UniProt Q05195 1-221) | binds
B1 | binds
B2 | binds
B3 | binds
B4 | binds
B5 | no binding
